Experimental findings from paper PMC10154249, “Unique progerin C-terminal peptide ameliorates Hutchinson–Gilford progeria syndrome phenotype by rescuing BUBR1” (Nature Aging, 2023) are described below.

This data set relates to progerin. In words: MS analysis of progerin-binding proteins. The note with it: Fig. 4e; sequence coverage of interacting protein.

As for PTBP1, the “Coverage (mass spectrometry assays of the interacting proteins of progerin)” value was determined as 10.92%.

In the case of HSP70, the “Coverage (mass spectrometry assays of the interacting proteins of progerin)” value is reported as 11.86%. For EF1γ the value was 14.19%.
